PubChem BioAssay AID504793, Drosophila RNAi Screening Center, 2011
Test: 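Knock-downs allowing continued mitosis even though DNA is damaged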 (primary screen). Cells: Drosophila S2R+ cells. Reagent: long dsRNA against Drosophila genes, about 0.25 µg dsRNA per well. Timing: 4 days of dsRNA, then 4 hours of drug before read-out. Challenge: doxorubicin 0.5 µM for 4 hours to cause double-strand breaks, in cells also given a low, harmless dose of dsRNA against nbs to sensitise the assay. Measured: 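Per-well count of mitotic cells stained for phospho-histone H3 after doxorubicin exposure, used as mitotic index; counts are raw and not normalised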. Direction: mitotic cells: higher = more cells in mitosis, weaker G2 arrest. Call rule: 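a call needs confirmation in secondary tests, with other dsRNAs and a check of mitotic timing without damage, not just a high primary count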. Meaning of the calls: active = confirmed in follow-up tests; inactive = not confirmed.
In all, the deposit lists about 23,000 reagents; below is a random part of those that have a named target and a result. In the full data, 62 (0.27%) were called active. 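Calls come from follow-up tests whose scores are not deposited, so confirmed genes may have low counts here; counts are not normalised per plate.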 Raw values vary from plate to plate and are shown uncorrected. Names joined by + are all predicted targets of the reagent.

The opening 5 entries, ahead of the listing:
| gene knocked down | dsRNA | mitotic cells, replicate 1 | mitotic cells, replicate 2 | call |
| --- | --- | --- | --- | --- |
| CG7824 | DRSC16321 | 5 | – | inactive |
| CG30412 | DRSC04564 | 6 | 4 | inactive |
| CG30412 | DRSC25522 | 6 | – | inactive |
| Cdk4 (Cyclin-dependent kinase 4) | DRSC07358 | 6 | – | inactive |
| Cdk4 (Cyclin-dependent kinase 4) | DRSC27263 | 4 | – | inactive |

The list itself, from the first entry:
| gene knocked down | dsRNA | mitotic cells, replicate 1 | mitotic cells, replicate 2 | call |
| --- | --- | --- | --- | --- |
| CG7824 | DRSC16321 | 5 | – | inactive |
| CG30412 | DRSC04564 | 6 | 4 | inactive |
| CG30412 | DRSC25522 | 6 | – | inactive |
| Cdk4 (Cyclin-dependent kinase 4) | DRSC07358 | 6 | – | inactive |
| Cdk4 (Cyclin-dependent kinase 4) | DRSC27263 | 4 | – | inactive |
| CG43322 | DRSC02280 | 6 | – | inactive |
| CG43322 | DRSC27089 | 7 | – | inactive |
| Jon66Cii (Jonah 66Cii) | DRSC10778 | 5 | – | inactive |
| Jon66Cii (Jonah 66Cii) | DRSC28611 | 12 | – | inactive |
| CG14695 | DRSC14918 | 7 | – | inactive |
| Nepl20 (Neprilysin-like 20) | DRSC14878 | 8 | – | inactive |
| CG14564 | DRSC11725 | 7 | – | inactive |
| CG14564 | DRSC22388 | 9 | – | inactive |
| CAH1 + Adat1 | DRSC02009 | 3 | – | inactive |
| CG17124 | DRSC02580 | 2 | – | inactive |
| CG17124 | DRSC29139 | 5 | – | inactive |
| CG30087 | DRSC21677 | 12 | – | inactive |
| CG30087 | DRSC27057 | 9 | – | inactive |
| CG30022 | DRSC22405 | 8 | – | inactive |
| Bug22 (Basal body up regulated gene 22) | DRSC02842 | 3 | – | inactive |
| CG14182 | DRSC10181 | 2 | – | inactive |
| CG32511 (retired record) | DRSC20697 | 10 | – | inactive |
| CG18858 + CG31683 | DRSC26788 | 10 | – | inactive |
| Pino (Pinocchio) | DRSC00038 | 4 | – | inactive |
| Pino (Pinocchio) | DRSC00662 | 4 | – | inactive |
| wdn (wings down) | DRSC17095 | 5 | – | inactive |
| wdn (wings down) | DRSC29088 | 2 | – | inactive |
| ebi | DRSC00816 | 6 | – | inactive |
| CG9981 | DRSC20225 | 5 | – | inactive |
| Toll-6 | DRSC11304 | 2 | – | inactive |
| Hsl (Hormone-sensitive lipase) | DRSC06028 | 12 | – | inactive |
| CG9294 | DRSC04537 | 4 | – | inactive |
| CG14744 | DRSC06480 | 7 | – | inactive |
| reb (rebuf) | DRSC06308 | 7 | – | inactive |
| CG10979 | DRSC12153 | 17 | – | inactive |
| CG14135 | DRSC10140 | 4 | – | inactive |
| Cubn (Cubilin) | DRSC18256 | 12 | – | inactive |
| Cubn (Cubilin) | DRSC29380 | 4 | – | inactive |
| BORCS6 (BLOC-1 related complex subunit 6) | DRSC08514 | 4 | – | inactive |
| BORCS6 (BLOC-1 related complex subunit 6) | DRSC25735 | 7 | – | inactive |
| CG31200 | DRSC15285 | 2 | – | inactive |
| CG12547 | DRSC07759 | 6 | – | inactive |
| CG12795 | DRSC00354 | 3 | – | inactive |
| Ilp6 (Insulin-like peptide 6) | DRSC17906 | 16 | – | inactive |
| fd3F (retired record) | DRSC23032 | 17 | – | inactive |
| Gasp | DRSC12349 | 8 | – | inactive |
| GstE8 (Glutathione S transferase E8) | DRSC06678 | 4 | – | inactive |
| GstS1 (Glutathione S transferase S1) | DRSC07436 | 7 | – | inactive |
| Picot | DRSC07508 | 4 | – | inactive |
| Picot | DRSC24256 | 6 | – | inactive |
| CG1907 | DRSC15399 | 5 | – | inactive |
| RpS11 (Ribosomal protein S11) | DRSC07289 | 12 | – | inactive |
| RpS11 (Ribosomal protein S11) | DRSC22700 | 2 | – | inactive |
| fw (furrowed) | DRSC20334 | 11 | – | inactive |
| fw (furrowed) | DRSC27087 | 9 | – | inactive |
| Or24a (Odorant receptor 24a) | DRSC00768 | 4 | – | inactive |
| CG12637 | DRSC17845 | 10 | – | inactive |
| CG12637 | DRSC28060 | 5 | – | inactive |
| CG9784 | DRSC20210 | 6 | – | inactive |
| CG9784 | DRSC28204 | 8 | – | inactive |
| Rrp42 | DRSC07161 | 10 | – | inactive |
| CG32276 | DRSC08027 | 13 | – | inactive |
| CG12519 | DRSC29810 | 5 | – | inactive |
| CG11755 | DRSC14374 | 5 | – | inactive |
| CG11755 | DRSC26076 | 3 | – | inactive |
| CIA30 (Complex I intermediate-associated protein, 30 kDa) | DRSC16266 | 3 | – | inactive |
| GAA1 (Glycosylphosphatidylinositol anchor attachment 1) | DRSC18267 | 8 | – | inactive |
| Cyp6a17 (Cytochrome P450 6a17) | DRSC07378 | 7 | – | inactive |
| CG15651 | DRSC04242 | 5 | – | inactive |
| CG31524 | DRSC22014 | 4 | – | inactive |
| CG31524 | DRSC28999 | 5 | – | inactive |
| Ku80 | DRSC02699 | – | – | inactive |
| Ku80 | DRSC26861 | 5 | – | inactive |
| IntS9 (Integrator 9) | DRSC10493 | 4 | – | inactive |
| IntS9 (Integrator 9) | DRSC28991 | 2 | – | inactive |
| Iris | DRSC00663 | 7 | – | inactive |
| CG10822 | DRSC06005 | 1 | – | inactive |
| dib (disembodied) | DRSC08711 | 11 | – | inactive |
| dib (disembodied) | DRSC26980 | 6 | – | inactive |
| CG6937 + btn | DRSC16917 | 15 | – | inactive |
| ppl (pumpless) | DRSC11899 | 9 | – | inactive |
| ppl (pumpless) | DRSC27839 | 6 | – | inactive |
| CG5062 | DRSC18385 | 8 | – | inactive |
| Coa8 (Cytochrome c oxidase assembly factor 8) | DRSC17959 | 14 | – | inactive |
| Peritrophin-15b | DRSC02266 | 5 | – | inactive |
| Jhbp13 (Juvenile hormone binding protein 13) | DRSC02913 | 2 | – | inactive |
| rha | DRSC17044 | 6 | – | inactive |
| CG8160 | DRSC07086 | 12 | – | inactive |
| CG8160 | DRSC21434 | 4 | – | inactive |
| CG8160 | DRSC24130 | 8 | – | inactive |
| Hayan | DRSC19989 | 8 | – | inactive |
| Hayan | DRSC22231 | 10 | – | inactive |
| Hayan | DRSC26434 | 7 | – | inactive |
| Blos1 | DRSC05970 | 5 | – | inactive |
| PPYR1 (Protein phosphatase Y regulator 1) | DRSC19612 | 6 | – | inactive |
| PPYR1 (Protein phosphatase Y regulator 1) | DRSC27134 | 3 | – | inactive |
| CG31826 | DRSC03357 | 7 | – | inactive |
| Or19b + Or19a | DRSC22604 | 13 | – | inactive |
| CG32192 | DRSC21760 | 12 | – | inactive |
| CG32192 | DRSC26771 | 8 | – | inactive |
| CG42268 | DRSC10171 | 9 | – | inactive |
| CG42268 | DRSC10702 | 7 | – | inactive |
| CG42268 | DRSC21797 | 11 | – | inactive |
| CG42268 | DRSC25299 | 5 | – | inactive |
| CG42268 | DRSC29387 | 2 | – | inactive |
| CG8483 | DRSC16430 | 3 | – | inactive |
| Rad60 | DRSC15580 | 10 | – | inactive |
| CG33253 | DRSC19547 | 10 | – | inactive |
| CG33253 | DRSC20053 | 9 | – | inactive |
| Vps20 (Vacuolar protein sorting 20) | DRSC04448 | 2 | – | inactive |
| Blimp-1 | DRSC10496 | – | – | inactive |
| Blimp-1 | DRSC24305 | 3 | – | inactive |
| wech | DRSC06606 | 3 | – | inactive |
| CG4829 | DRSC19920 | 5 | – | inactive |
| Fmr1 (Fragile X messenger ribonucleoprotein 1) | DRSC16674 | 4 | – | inactive |
| Fmr1 (Fragile X messenger ribonucleoprotein 1) | DRSC26781 | 6 | – | inactive |
| CG34398 | DRSC01052 | 12 | – | inactive |
| CG34398 | DRSC02511 | 4 | – | inactive |
| CG34398 | DRSC03228 | 5 | – | inactive |
| CG34398 | DRSC23293 | 4 | – | inactive |
| dpr8 (defective proboscis extension response 8) | DRSC19406 | 16 | – | inactive |
| dpr8 (defective proboscis extension response 8) | DRSC19600 | 7 | – | inactive |
| dpr8 (defective proboscis extension response 8) | DRSC19938 | 11 | – | inactive |
| dpr8 (defective proboscis extension response 8) | DRSC19939 | 14 | – | inactive |
| CG34232 | DRSC36562 | 8 | – | inactive |
| Ir68b (Ionotropic receptor 68b) | DRSC10251 | 2 | – | inactive |
| Coq4 + Gorab + frc | DRSC10383 | 5 | – | inactive |
| CG34133 | DRSC16319 | 8 | – | inactive |
| CG34133 | DRSC22239 | 7 | – | inactive |
| CG34133 | DRSC25658 | 3 | – | inactive |
| CG34133 | DRSC29408 | 5 | – | inactive |
| CG13606 | DRSC14609 | 21 | – | inactive |
| CG30109 + CG30108 | DRSC05674 | 1 | – | inactive |
| crim (crimpled) | DRSC10573 | 10 | – | inactive |
| CG10631 | DRSC02081 | 1 | – | inactive |
| CG15019 | DRSC08473 | 6 | – | inactive |
| CG32447 | DRSC11732 | 7 | – | inactive |
| CG32447 | DRSC11805 | 3 | – | inactive |
| ppk8 (pickpocket 8) | DRSC17269 | 16 | – | inactive |
| CdGAPr (Cd GTPase activating protein-related) | DRSC03289 | 3 | – | inactive |
